In paper PMC3257293:
These are yes or no findings as the source states them, for the method shown. Some entries that bind do so weakly or less than the wild type. Tags and fused reporters may be left off the sequences shown.

Key:
Experiment in all cases: two-hybrid; Cdc5, Tem1 and Bub2 fused to the activation domain in pJG4-5; Bfa1 and each Bfa1 mutant fused to the DNA binding domain in pGilda; yeast strain EGY48 with the reporter plasmid pSH18-34; measured quantitatively
[1] = molecular target: T1, Bfa1 (wild type), fused to the DNA binding domain in pGilda (S. cerevisiae) (UniProt P47113)
T1 sequence: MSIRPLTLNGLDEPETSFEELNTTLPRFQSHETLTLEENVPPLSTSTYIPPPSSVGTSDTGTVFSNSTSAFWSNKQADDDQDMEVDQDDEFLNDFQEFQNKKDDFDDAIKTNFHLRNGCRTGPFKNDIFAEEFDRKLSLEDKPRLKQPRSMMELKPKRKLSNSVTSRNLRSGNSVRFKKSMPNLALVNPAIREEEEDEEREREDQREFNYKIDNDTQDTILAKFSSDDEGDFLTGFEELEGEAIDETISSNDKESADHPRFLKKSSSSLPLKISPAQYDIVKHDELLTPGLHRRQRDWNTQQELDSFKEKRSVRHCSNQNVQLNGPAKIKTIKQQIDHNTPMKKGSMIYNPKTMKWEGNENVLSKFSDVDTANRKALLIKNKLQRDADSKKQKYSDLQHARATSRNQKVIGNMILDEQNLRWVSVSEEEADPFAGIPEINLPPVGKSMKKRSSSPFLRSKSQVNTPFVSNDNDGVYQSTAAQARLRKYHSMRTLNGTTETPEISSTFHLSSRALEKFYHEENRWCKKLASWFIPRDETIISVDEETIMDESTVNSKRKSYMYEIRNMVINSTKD

[2] = molecular target: T2, Bfa1^DDR2 (Deletion of Direct Repeat 2; Bfa1^(G411E M413I D416A W422A)), fused to the DNA binding domain in pGilda (S. cerevisiae) (UniProt P47113)
T2 sequence: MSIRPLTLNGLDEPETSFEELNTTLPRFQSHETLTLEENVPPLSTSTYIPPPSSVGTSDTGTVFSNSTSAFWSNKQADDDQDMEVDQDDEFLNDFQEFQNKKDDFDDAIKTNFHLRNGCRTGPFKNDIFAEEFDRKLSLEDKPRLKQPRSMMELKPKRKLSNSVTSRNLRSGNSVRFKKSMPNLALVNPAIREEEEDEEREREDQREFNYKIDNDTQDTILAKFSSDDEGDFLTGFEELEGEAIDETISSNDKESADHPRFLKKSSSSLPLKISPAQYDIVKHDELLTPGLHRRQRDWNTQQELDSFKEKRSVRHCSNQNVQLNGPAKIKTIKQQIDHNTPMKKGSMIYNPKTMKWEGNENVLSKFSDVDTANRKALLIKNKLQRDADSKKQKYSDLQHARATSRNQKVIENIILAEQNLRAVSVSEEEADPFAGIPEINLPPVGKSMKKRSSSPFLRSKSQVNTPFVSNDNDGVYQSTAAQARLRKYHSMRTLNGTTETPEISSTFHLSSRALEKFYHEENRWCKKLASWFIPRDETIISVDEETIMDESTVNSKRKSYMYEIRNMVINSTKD

[3] = molecular target: T3, Bfa1^M413I, fused to the DNA binding domain in pGilda (S. cerevisiae) (UniProt P47113)
T3 sequence: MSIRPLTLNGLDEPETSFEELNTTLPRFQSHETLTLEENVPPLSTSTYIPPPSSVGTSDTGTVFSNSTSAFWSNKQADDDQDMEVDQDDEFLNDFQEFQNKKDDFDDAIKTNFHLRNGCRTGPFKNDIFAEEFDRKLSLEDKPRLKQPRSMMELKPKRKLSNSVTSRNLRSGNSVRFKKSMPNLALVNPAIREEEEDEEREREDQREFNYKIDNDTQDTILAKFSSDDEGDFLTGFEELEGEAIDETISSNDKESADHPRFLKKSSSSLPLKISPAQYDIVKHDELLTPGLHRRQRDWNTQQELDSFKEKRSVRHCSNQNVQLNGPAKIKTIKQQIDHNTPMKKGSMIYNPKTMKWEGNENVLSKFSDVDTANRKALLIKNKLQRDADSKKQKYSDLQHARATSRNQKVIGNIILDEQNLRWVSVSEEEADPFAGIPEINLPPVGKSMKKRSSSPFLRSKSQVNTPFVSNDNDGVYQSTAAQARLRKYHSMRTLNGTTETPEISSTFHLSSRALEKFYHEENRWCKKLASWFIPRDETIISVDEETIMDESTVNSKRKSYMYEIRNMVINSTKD

[4] = molecular target: T4, Bfa1^D416A, fused to the DNA binding domain in pGilda (S. cerevisiae) (UniProt P47113)
T4 sequence: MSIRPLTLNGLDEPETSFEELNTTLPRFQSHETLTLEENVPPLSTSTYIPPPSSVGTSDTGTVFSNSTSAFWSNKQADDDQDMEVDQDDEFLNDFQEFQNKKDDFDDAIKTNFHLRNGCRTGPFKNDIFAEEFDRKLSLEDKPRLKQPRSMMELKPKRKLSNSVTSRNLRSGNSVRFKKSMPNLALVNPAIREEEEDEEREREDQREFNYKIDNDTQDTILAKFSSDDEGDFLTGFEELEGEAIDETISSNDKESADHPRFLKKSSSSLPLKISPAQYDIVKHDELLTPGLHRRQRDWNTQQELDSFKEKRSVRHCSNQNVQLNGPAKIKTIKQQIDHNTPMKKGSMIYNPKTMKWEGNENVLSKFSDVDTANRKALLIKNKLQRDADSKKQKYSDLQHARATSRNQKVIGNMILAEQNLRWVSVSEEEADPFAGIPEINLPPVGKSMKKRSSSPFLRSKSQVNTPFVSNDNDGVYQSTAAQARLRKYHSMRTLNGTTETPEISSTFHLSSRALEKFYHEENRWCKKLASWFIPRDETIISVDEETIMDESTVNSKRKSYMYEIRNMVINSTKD

binding [1]: binds
binding [2]: binds
binding [3]: binds
binding [4]: binds
B1: Cdc5, fused to the DNA activation domain in pJG4-5 (enzyme, UniProt P32562 1-705)
chain: MSLGPLKAINDKQLNTRSKLVHTPIKGNTADLVGKENHFKQTKRLDPNNDHHHQPAQKKKREKLSALCKTPPSLIKTRGKDYHRGHFLGEGGFARCFQIKDDSGEIFAAKTVAKASIKSEKTRKKLLSEIQIHKSMSHPNIVQFIDCFEDDSNVYILLEICPNGSLMELLKRRKVLTEPEVRFFTTQICGAIKYMHSRRVIHRDLKLGNIFFDSNYNLKIGDFGLAAVLANESERKYTICGTPNYIAPEVLMGKHSGHSFEVDIWSLGVMLYALLIGKPPFQARDVNTIYERIKCRDFSFPRDKPISDEGKILIRDILSLDPIERPSLTEIMDYVWFRGTFPPSIPSTVMSEAPNFEDIPEEQSLVNFKDCMEKSLLLESMSSDKIQRQKRDYISSIKSSIDKLEEYHQNRPFLPHSLSPGGTKQKYKEVVDIEAQRRLNDLAREARIRRAQQAVLRKELIATSTNVIKSEISLRILASECHLTLNGIVEAEAQYKMGGLPKSRLPKIKHPMIVTKWVDYSNKHGFSYQLSTEDIGVLFNNGTTVLRLADAEEFWYISYDDREGWVASHYLLSEKPRELSRHLEVVDFFAKYMKANLSRVSTFGREEYHKDDVFLRRYTRYKPFVMFELSDGTFQFNFKDHHKMAISDGGKLVTYISPSHESTTYPLVEVLKYGEIPGYPESNFREKLTLIKEGLKQKSTIVTVD
